Laboratory results taken from patent US12245998B2 (NACUITY PHARMACEUTICALS, INC., priority 2019, dated 2025).
Some results were stated once for a whole list of compounds, not compound by compound.

Experiment: Creep-recovery yield stress of HBE airway mucus
Design: species or system human
Settings: 200 mM dose; lowest stress used in the study; control yielded at 1.3 Pa

SMILES	yield stress (stress at which the mucus flowed)
CC(=O)N[C@@H](CS)C(N)=O	≤ 0.05 Pa
CC(=O)N[C@@H](CS)C(=O)O [NAC, N-acetyl-L-cysteine]	≤ 0.05 Pa
